According to the supplement of paper PMC12067093, “Discovery and optimisation of a covalent ligand for TRIM25 and its application to targeted protein ubiquitination” (Chemical Science, 2025):
The other results are listed elsewhere or left out.

Chains of the proteins cited; added tags and fusions are not shown. Lines headed by an entry give the natural chain unless they say otherwise; changes in a name come on top.
UniProt Q8NBX0: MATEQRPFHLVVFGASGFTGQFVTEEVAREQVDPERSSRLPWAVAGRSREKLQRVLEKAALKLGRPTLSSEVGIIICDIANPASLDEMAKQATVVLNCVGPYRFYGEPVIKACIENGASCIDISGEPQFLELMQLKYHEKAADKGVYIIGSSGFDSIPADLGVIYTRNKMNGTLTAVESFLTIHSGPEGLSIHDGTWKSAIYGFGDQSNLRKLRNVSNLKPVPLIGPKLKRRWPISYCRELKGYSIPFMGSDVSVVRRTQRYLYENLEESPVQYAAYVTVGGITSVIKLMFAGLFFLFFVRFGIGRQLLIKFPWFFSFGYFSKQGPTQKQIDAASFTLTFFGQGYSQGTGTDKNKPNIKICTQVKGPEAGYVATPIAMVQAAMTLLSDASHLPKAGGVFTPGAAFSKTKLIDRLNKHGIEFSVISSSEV
UniProt Q9Y6Y8: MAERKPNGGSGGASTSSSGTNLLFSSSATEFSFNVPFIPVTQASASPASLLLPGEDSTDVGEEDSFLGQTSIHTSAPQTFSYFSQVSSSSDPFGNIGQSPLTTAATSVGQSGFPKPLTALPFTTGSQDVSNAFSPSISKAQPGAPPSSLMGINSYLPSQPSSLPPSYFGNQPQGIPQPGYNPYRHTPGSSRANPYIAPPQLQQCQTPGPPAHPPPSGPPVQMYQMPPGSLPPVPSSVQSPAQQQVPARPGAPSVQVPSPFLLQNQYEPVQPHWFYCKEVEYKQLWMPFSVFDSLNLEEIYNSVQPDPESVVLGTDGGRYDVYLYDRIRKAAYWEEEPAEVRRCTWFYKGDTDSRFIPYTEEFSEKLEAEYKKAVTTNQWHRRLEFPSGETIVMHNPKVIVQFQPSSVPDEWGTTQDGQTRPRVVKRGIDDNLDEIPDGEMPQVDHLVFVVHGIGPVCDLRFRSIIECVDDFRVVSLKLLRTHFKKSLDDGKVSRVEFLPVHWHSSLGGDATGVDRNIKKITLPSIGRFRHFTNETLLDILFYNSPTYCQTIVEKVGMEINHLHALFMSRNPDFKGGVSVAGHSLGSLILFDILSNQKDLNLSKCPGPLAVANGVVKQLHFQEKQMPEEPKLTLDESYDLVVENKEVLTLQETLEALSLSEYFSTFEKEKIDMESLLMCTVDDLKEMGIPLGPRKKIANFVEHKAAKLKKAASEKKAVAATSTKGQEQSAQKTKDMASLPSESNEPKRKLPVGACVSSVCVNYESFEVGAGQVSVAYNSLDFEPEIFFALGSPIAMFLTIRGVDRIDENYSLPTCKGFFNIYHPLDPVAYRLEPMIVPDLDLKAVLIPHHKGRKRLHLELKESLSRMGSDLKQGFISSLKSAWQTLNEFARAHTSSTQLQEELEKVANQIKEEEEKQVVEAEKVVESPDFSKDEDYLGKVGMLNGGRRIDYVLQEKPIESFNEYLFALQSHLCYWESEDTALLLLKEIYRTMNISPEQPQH
UniProt Q9Y6B6: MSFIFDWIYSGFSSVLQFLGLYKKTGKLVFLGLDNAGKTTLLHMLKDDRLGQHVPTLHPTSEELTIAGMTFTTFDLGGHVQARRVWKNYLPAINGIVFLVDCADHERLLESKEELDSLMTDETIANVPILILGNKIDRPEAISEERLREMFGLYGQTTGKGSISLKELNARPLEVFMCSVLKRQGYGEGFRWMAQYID
UniProt Q15437: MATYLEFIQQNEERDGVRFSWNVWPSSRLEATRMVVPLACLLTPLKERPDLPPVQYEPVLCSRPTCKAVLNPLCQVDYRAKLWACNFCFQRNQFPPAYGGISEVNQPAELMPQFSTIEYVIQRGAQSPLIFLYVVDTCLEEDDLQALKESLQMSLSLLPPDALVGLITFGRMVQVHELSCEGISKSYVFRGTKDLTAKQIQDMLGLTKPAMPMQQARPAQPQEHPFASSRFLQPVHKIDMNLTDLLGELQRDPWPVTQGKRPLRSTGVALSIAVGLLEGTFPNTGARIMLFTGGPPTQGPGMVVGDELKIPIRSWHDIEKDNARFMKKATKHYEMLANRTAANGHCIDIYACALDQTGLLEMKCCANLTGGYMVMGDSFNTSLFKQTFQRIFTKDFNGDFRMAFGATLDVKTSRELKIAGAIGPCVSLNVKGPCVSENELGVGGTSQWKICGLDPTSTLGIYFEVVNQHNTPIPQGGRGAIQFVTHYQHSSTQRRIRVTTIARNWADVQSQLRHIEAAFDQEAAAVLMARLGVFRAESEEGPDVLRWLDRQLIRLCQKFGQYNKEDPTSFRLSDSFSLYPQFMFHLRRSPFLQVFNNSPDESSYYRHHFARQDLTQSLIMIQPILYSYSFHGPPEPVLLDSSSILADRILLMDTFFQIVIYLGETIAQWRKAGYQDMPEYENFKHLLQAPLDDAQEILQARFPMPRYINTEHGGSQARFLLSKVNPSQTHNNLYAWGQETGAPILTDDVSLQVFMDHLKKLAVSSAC
UniProt P31040: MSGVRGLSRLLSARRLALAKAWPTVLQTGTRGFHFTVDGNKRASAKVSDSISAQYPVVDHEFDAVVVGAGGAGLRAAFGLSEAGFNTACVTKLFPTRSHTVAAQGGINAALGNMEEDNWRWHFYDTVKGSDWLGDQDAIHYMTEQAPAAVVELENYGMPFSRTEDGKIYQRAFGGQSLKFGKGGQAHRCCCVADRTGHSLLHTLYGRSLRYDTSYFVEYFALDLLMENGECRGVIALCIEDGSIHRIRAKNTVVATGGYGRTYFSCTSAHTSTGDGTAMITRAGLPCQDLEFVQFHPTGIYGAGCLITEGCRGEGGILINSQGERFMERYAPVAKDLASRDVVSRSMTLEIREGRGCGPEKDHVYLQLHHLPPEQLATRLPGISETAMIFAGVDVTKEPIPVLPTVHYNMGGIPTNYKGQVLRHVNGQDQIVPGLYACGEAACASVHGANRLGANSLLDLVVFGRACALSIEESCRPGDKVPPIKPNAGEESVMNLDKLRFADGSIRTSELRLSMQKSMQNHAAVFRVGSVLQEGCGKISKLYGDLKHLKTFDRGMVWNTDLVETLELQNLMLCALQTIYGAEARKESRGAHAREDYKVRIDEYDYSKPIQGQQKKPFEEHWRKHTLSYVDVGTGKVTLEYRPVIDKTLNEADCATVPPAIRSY
UniProt Q96KG9: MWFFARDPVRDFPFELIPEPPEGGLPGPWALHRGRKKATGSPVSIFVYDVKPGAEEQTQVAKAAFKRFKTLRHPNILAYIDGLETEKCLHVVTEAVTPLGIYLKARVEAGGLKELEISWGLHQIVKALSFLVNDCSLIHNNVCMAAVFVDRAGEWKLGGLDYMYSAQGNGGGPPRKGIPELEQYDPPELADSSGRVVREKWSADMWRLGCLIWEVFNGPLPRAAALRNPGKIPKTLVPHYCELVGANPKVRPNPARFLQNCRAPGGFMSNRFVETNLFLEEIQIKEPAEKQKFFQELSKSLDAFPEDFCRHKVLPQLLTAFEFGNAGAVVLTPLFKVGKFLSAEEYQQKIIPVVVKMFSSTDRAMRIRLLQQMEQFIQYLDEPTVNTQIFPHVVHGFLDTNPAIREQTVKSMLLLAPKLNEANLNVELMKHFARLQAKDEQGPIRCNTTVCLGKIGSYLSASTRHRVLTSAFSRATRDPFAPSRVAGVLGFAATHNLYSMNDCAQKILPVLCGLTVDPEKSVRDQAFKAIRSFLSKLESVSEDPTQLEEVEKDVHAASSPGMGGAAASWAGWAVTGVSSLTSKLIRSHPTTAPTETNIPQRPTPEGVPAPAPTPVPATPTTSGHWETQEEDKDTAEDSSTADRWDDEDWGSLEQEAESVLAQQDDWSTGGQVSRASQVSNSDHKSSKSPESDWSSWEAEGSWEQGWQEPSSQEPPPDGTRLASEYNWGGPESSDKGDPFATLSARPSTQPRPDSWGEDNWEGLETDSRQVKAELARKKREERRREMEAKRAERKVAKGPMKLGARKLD
UniProt P53992: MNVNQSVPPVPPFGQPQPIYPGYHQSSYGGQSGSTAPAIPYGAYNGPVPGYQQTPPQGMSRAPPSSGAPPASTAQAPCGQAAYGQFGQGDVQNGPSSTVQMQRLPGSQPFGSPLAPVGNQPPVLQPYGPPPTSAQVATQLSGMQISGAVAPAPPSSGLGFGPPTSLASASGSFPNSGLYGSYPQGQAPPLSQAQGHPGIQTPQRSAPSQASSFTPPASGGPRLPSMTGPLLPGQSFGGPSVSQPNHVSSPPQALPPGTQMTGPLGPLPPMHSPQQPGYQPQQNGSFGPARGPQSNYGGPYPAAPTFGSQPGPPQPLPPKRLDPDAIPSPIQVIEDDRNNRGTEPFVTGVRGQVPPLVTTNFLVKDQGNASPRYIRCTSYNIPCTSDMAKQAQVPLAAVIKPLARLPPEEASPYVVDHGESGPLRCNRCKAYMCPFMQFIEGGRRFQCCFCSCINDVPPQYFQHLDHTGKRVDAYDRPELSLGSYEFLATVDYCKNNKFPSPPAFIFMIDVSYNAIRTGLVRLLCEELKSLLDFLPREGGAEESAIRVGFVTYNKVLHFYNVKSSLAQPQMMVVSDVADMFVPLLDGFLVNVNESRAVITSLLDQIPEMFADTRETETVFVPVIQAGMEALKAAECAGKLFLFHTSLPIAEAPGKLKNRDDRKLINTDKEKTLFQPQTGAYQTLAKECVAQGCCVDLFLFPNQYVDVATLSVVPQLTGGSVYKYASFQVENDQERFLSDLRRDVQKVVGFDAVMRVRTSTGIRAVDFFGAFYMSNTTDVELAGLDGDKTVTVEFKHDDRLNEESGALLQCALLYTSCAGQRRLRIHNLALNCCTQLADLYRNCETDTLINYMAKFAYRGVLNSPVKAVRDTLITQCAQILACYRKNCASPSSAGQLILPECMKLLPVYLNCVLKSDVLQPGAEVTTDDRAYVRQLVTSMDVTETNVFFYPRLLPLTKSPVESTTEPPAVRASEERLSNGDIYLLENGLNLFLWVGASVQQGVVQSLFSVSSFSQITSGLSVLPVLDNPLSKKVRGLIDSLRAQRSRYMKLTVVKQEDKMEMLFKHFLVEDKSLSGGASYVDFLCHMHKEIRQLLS
UniProt P55735: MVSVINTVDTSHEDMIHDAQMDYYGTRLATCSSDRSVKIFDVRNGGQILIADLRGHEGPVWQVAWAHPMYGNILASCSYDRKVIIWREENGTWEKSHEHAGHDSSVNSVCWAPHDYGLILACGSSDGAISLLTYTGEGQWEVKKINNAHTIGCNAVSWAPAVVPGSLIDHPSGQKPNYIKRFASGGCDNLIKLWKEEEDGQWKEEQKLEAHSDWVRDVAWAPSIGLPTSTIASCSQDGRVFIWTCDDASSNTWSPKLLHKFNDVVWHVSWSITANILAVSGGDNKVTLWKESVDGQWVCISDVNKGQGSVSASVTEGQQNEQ
UniProt Q15020: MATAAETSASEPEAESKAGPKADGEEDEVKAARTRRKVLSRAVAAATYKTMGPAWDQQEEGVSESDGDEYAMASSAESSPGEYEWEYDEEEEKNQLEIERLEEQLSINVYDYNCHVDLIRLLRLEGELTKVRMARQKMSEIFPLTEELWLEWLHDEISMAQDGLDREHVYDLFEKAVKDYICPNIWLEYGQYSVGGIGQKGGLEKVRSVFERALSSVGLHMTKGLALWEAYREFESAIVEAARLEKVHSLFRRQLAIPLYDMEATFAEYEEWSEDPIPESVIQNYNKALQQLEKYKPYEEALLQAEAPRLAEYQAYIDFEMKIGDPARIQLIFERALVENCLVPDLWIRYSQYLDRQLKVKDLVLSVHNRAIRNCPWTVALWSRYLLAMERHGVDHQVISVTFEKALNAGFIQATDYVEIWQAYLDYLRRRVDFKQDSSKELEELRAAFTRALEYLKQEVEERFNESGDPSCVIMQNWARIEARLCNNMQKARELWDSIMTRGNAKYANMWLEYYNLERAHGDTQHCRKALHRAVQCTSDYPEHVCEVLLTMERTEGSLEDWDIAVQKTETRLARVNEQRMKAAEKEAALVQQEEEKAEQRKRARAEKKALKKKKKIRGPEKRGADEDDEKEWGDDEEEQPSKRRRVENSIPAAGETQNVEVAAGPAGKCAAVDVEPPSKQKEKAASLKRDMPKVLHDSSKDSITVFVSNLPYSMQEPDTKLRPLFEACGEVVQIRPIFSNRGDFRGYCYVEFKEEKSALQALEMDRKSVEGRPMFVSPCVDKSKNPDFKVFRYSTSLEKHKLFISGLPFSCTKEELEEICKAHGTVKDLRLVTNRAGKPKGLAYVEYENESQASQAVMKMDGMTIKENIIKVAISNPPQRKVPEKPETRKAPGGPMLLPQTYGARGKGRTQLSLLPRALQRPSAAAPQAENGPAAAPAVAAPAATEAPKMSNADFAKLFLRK
UniProt Q9HCN8: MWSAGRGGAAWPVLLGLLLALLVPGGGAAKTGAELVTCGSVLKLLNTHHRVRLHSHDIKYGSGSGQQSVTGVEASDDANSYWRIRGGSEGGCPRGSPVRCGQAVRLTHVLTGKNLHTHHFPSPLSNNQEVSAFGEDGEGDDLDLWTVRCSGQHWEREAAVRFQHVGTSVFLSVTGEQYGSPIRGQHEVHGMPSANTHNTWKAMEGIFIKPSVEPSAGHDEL

Compound: CC1Cc2ccccc2N1C(=O)C1CCCN(C1)C(=O)CCl (mixture of isomers) [TRIM25 ligand 11 (diastereomer mixture)]
Experiment: probe-labelled cysteine peptide fold change vs DMSO (competition) (log2 fold change); higher = less target engagement (more negative = stronger competition)
Conditions: THP-1, incubation time: 4 h
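Note: competitive chemoproteomic profiling in live THP-1 cells with an iodoacetamide desthiobiotin (IA-DTB) probe, comparing probe-labelled peptide intensities in compound-treated cells against DMSO-treated controls.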

Target | probe-labelled cysteine peptide fold change (10 µM) | probe-labelled cysteine peptide fold change (50 µM)
SATB2_Q9UPW6_195_ECPLSQSMISSIVNSTYYANVSATK (UniProt Q9UPW6) | 0.34 | 0.324
SCCPDH_Q8NBX0_98_QATVVLNCVGPYR (UniProt Q8NBX0) | 0.0302 | 0.137
SEC24D_O94855_1021+1022_GLYGGSSYVDFLCCVHK (UniProt O94855) | -0.0116 | -0.0443
SBDS_Q9Y3A5_216_VIESEDYGQQLEIVCLIDPGCFR (UniProt Q9Y3A5) | -0.0248 | -0.0419
SCAF4_O95104_506_GLPQVKPETASVCSTTLWVGQLDKR (UniProt O95104) | -0.0494 | -0.0244
SEC23IP_Q9Y6Y8_678_IDMESLLMCTVDDLK (UniProt Q9Y6Y8) | 0.0286 | -0.137
SAR1B_Q9Y6B6_102_NYLPAINGIVFLVDCADHER (UniProt Q9Y6B6) | 0.177 | 0.151
SEC24D_O94855_1028_EICQLLN (UniProt O94855) | -0.236 | -0.0431
SEC23B_Q15437_61+66_ERPDLPPVQYEPVLCSRPTCK (UniProt Q15437) | -0.218 | -0.289
SEC24D_O94855_573_AADCPGK (UniProt O94855) | -0.028 | 0.0681
SEC31A_O94979_173_TQPPEDISCIAWNR (UniProt O94979) | -0.0768 | 0.0339
SCYL3_Q8IZE3_71_FLSCTVEADGIHLVTER (UniProt Q8IZE3) | 0.0304 | -0.0732
SDHA_P31040_238_GVIALCIEDGSIHR (UniProt P31040) | 0.141 | 0.0837
SAMHD1_Q9Y3Z3_266_WTHEQGSVMMFEHLINSNGIKPVMEQYGLIPEEDICFIK (UniProt Q9Y3Z3) | 0.0321 | -0.113
SAMHD1_Q9Y3Z3_80_ENEITGALLPCLDESR (UniProt Q9Y3Z3) | -0.0153 | 0.0561
SCYL1_Q96KG9_309_SLDAFPEDFCR (UniProt Q96KG9) | -0.151 | -0.00911
SEPSECS_Q9HD40_262_CMHLIQQGAR (UniProt Q9HD40) | -0.0253 | -0.0292
SEC24C_P53992_809_HDDRLNEESGALLQCALLYTSCAGQR (UniProt P53992) | 0.144 | 0.08
SATB2_Q9UPW6_246_VERENLSDYCVLGQRPMHLPNMNQLASLGK (UniProt Q9UPW6) | -0.119 | -0.145
SEC24B_O95487_1103_VYAMCQIK (UniProt O95487) | -0.00811 | 0.0235
SEC13_P55735_245_VFIWTCDDASSNTWSPK (UniProt P55735) | -0.245 | -0.0321
SAP130_Q9H0E3_951_VHLCAAQLLQLTNLEHDVYER (UniProt Q9H0E3) | -0.122 | -0.135

Complete entries from above.
SAP130_Q9H0E3_951_VHLCAAQLLQLTNLEHDVYER (UniProt Q9H0E3) as listed: probe-labelled cysteine peptide fold change (10 µM): -0.122; probe-labelled cysteine peptide fold change (50 µM): -0.135
SATB2_Q9UPW6_195_ECPLSQSMISSIVNSTYYANVSATK (UniProt Q9UPW6) as listed: probe-labelled cysteine peptide fold change (10 µM): 0.34; probe-labelled cysteine peptide fold change (50 µM): 0.324
SEC23IP_Q9Y6Y8_678_IDMESLLMCTVDDLK (UniProt Q9Y6Y8) as listed: probe-labelled cysteine peptide fold change (10 µM): 0.0286; probe-labelled cysteine peptide fold change (50 µM): -0.137

(cont.)

Target | probe-labelled cysteine peptide fold change (10 µM) | probe-labelled cysteine peptide fold change (50 µM)
SEC23B_Q15437_434_GPCVSENELGVGGTSQWK (UniProt Q15437) | 0.0914 | 0.096
SEC16A_O15027_1293_YWCDAEYDAYRR (UniProt O15027) | -0.000498 | -0.22
SART3_Q15020_670_CAAVDVEPPSK (UniProt Q15020) | 0.0246 | -0.148
SCYL1_Q96KG9_143_ALSFLVNDCSLIHNNVCMAAVFVDR (UniProt Q96KG9) | 0.00271 | 0.086
SART3_Q15020_729_LRPLFEACGEVVQIRPIFSNR (UniProt Q15020) | 0.0139 | 0.0102
SEC23B_Q15437_61_ERPDLPPVQYEPVLCSRPTCK (UniProt Q15437) | -0.0466 | 0.0389
SEC16A_O15027_107_DSSQGPCEPLPGPLTQPR (UniProt O15027) | -0.169 | -0.0215
SAP30_O75446_184_AQLVEIVGCHFR (UniProt O75446) | -0.0276 | -0.0231
SDF2L1_Q9HCN8_92_IRGGSEGGCPR (UniProt Q9HCN8) | -0.268 | -0.108
SDSL_Q96GA7_69_HLVCSSGGNAGIAAAYAAR (UniProt Q96GA7) | 0.124 | 0.181
SCARB2_Q14108_274_DEVLYVFPSDFCR (UniProt Q14108) | -0.0336 | -0.11
SEPHS1_P49903_71_LGIGMDTCVIPLR (UniProt P49903) | -0.0328 | -0.0933
SEC13_P55735_77_GHEGPVWQVAWAHPMYGNILASCSYDRK (UniProt P55735) | -0.0183 | 0.0241
SAMM50_Q9Y512_457_ICDGVQFGAGIR (UniProt Q9Y512) | 0.0158 | 0.0232
SDK1_Q7Z5N4_1538_GEWQTYSSSISHEATACVVDR (UniProt Q7Z5N4) | 0.117 | -0.13
SATB2_Q9UPW6_159_IQLQSCSK (UniProt Q9UPW6) | 0.071 | -0.00125
SEC24C_P53992_1083_SLSGGASYVDFLCHMHK (UniProt P53992) | -0.00365 | -0.0895
SDHA_P31040_438_HVNGQDQIVPGLYACGEAACASVHGANR (UniProt P31040) | 0.121 | -0.0746
SBF1_O95248_896_LLPGEECVLDGLR (UniProt O95248) | 0.00923 | -0.0319
SATB1_Q01826_529_SQGWLCELLR (UniProt Q01826) | -0.148 | -0.147
SAMHD1_Q9Y3Z3_341_VCEVDNELR (UniProt Q9Y3Z3) | 0.0414 | 0.44
SART1_O43290_560_GAIVFNATSEFCR (UniProt O43290) | -0.0108 | 0.0741
